These are yes or no findings as the source states them, for the method shown. Binding can be weak; no strength is given.

The chains behind the UniProt entries cited, without tags or fusion partners. Where a name states a change or a piece, a line headed by the entry shows the natural chain unless it says otherwise.
UniProt P25043: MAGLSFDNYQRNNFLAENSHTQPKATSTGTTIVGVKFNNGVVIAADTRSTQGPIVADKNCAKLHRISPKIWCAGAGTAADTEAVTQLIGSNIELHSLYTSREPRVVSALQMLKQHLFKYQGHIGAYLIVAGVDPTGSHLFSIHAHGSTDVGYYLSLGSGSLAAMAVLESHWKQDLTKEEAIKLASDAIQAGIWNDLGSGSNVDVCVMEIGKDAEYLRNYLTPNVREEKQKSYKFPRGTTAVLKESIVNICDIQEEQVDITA

For this experiment, the target named is T1, Scs3 (S. cerevisiae) (UniProt P53012).
T1 sequence: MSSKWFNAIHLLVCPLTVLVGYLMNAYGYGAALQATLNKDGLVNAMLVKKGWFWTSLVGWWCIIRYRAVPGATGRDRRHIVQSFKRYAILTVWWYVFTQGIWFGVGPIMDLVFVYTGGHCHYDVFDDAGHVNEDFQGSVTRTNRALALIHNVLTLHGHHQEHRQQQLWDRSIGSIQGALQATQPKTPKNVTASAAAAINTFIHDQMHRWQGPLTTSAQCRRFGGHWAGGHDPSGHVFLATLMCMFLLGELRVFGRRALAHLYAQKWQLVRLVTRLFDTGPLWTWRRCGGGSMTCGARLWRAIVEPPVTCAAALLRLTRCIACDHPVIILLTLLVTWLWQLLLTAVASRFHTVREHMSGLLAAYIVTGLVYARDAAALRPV
The experiment is described as follows: two-hybrid.

As for Pup1 (from UniProt P25043), the binding result is reported as “binds”.

The record behind these values is publication doi:10.1101/2020.04.06.027847.
